From publication PMC3781056, “New Pyrazolopyrimidine Inhibitors of Protein Kinase D as Potent Anticancer Agents for Prostate Cancer Cells” (PLoS ONE, 2013)

Target: T1, PKD1 (Homo sapiens, UniProt Q15139)
T1 construct: GST; purchased Enzo Life sciences (Farmingdale, NY)
T1 sequence (Q15139 1-912): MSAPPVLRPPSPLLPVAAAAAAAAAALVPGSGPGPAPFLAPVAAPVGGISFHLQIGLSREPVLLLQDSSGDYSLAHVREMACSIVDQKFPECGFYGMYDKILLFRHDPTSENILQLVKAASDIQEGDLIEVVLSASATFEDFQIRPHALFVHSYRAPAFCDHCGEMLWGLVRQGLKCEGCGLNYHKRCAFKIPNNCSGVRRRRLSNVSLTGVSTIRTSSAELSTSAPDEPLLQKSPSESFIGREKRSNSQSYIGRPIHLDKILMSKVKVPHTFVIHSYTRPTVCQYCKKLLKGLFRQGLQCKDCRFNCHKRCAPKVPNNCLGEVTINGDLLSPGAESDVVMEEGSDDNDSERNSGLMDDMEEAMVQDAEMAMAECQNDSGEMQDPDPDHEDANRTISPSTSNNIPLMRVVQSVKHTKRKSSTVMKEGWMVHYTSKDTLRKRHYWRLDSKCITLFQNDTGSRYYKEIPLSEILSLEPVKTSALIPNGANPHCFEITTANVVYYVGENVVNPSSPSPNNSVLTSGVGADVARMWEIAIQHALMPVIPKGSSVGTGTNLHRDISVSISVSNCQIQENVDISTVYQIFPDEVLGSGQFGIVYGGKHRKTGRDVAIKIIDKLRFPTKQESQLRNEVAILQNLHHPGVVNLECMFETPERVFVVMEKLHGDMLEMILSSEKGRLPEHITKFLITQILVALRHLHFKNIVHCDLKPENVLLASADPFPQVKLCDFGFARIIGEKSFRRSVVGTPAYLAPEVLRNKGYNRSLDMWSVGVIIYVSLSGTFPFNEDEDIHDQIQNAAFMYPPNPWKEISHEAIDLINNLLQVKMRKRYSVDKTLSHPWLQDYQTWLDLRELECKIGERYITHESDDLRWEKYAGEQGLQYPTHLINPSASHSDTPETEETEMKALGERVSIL
Test: In vitro radiometric PKD1 screening assay at 1 µM
Assay type: biochemical
Settings: targeted kinase inhibitor library screen, relative to DMSO
Experimental: Phosphorylation of HDAC5 was detected in a kinase reaction having 1 µCi [γ-^32P] […] The reaction was incubated at 30°C for 10 minutes and 25 µL of the reaction was spotted on Whatman P81 filter paper. The filter paper was washed 3 times in 0.5% phosphoric acid, air dried and counted using Beckman LS6500 multipurpose scintillation counter. Percent PKD1 inhibition was graphed using GraphPad Prism software 5.0.

## O=C1NC(=O)c2c1c(-c1ccccc1)cc1[nH]c3ccc(O)cc3c21 [PD 407824]
  % PKD1 Inhibition: 57%
